Article PMC9814157
No constants are given. Whether binding was seen depends on the method and setting. In cells and extracts the contact can be indirect. Some entries that bind do so weakly or less than the wild type.

Amino acid sequences for entries named in this document (tags omitted).
UniProt Q60631: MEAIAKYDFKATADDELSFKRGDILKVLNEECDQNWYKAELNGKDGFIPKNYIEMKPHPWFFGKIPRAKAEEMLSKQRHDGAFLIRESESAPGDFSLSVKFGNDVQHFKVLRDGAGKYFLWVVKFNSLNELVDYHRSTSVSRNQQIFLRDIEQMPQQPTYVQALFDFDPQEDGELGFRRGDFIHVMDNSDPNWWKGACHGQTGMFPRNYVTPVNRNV

How the values were obtained:
[1] = target: T1, integrin-linked kinase (ILK) (mouse (endogenous in splenic B cells)) (UniProt O55222); assay: co-IP; lysate of β1^KO (Itgb1^fl/fl Cd21^Cre) transitional B cells, 1 mg total protein; anti-ILK (4G9) or control IgG overnight at 4°C, Dynabeads Protein G; 20 mM Hepes pH 7.6, 2 mM MgCl2, 150 mM NaCl, 10% glycerol, 0.1% NP40; immunoblot for Grb2 and ILK
T1 sequence: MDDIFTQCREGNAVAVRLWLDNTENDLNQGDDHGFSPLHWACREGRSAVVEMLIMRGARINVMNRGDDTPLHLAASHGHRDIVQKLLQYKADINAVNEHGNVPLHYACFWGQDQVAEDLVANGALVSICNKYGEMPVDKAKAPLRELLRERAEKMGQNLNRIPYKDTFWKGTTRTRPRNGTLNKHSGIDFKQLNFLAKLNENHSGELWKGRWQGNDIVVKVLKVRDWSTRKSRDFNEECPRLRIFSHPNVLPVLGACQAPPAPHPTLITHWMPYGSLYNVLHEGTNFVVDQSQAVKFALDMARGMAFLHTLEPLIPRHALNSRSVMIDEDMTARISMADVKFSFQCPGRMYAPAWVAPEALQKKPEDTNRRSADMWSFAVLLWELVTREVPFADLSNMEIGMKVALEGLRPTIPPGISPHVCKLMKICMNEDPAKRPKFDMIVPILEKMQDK

[2] = target: T1, integrin-linked kinase (ILK) (mouse (endogenous in splenic B cells)); assay: condition: only in lysates of β1^WT and β1^KO Fo B cells; co-IP; lysates of β1^WT and β1^KO follicular (Fo) B cells, 1 mg total protein; anti-ILK (4G9) or control IgG overnight at 4°C, Dynabeads Protein G; 20 mM Hepes pH 7.6, 2 mM MgCl2, 150 mM NaCl, 10% glycerol, 0.1% NP40; immunoblot for Grb2 and ILK
[3] = target: T1, integrin-linked kinase (ILK) (mouse (endogenous in splenic B cells)); assay: condition: only in lysate of β1^WT transitional B cells; co-IP; lysate of β1^WT (Itgb1^+/+ Cd21^Cre) transitional B cells, 1 mg total protein; anti-ILK (4G9) or control IgG overnight at 4°C, Dynabeads Protein G; 20 mM Hepes pH 7.6, 2 mM MgCl2, 150 mM NaCl, 10% glycerol, 0.1% NP40; immunoblot for Grb2 and ILK

Substance: adaptor protein Grb2 (from UniProt Q60631 1-217)
- binding [1]: binds weakly
- binding [2]: no binding
- binding [3]: no binding
